Results published in article doi:10.1101/276733.
These are yes or no findings as the source states them, for the method shown. Some entries that bind do so weakly or less than the wild type.

Chains of the proteins cited; added tags and fusions are not shown. Residues count along the entry.
UniProt P84077, residues 17-181: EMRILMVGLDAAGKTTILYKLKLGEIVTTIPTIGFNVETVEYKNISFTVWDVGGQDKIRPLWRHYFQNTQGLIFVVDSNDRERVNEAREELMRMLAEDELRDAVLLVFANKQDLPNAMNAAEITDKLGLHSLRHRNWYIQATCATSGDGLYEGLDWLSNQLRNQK
UniProt Q10589, residues 1-21: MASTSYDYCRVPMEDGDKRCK

Target: T1, AP-1 µ1 subunit (in the AP-1 core) (UniProt P35585)
T1 sequence: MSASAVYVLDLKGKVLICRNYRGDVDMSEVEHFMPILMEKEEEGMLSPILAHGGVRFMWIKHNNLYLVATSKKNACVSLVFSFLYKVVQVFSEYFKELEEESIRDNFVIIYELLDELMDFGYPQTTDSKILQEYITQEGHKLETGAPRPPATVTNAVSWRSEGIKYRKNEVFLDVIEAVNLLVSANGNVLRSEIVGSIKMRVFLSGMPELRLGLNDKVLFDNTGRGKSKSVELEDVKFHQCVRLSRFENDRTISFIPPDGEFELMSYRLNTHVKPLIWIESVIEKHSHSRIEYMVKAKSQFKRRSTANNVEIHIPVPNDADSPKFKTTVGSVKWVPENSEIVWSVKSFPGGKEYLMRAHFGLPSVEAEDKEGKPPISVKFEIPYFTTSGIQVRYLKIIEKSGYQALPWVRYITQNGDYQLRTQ
Assay: cryo-EM structure

binding | Substance
binds | Arf1-GTP (from UniProt P84077 17-181)
binds | cytosolic tail of human tetherin (1-21) (from UniProt Q10589 1-21) (domain or fragment)
